Experiment [1] has as its target T1, FLAG-Siah2 SBD (substrate binding domain) (human) (UniProt O43255).
T1 sequence: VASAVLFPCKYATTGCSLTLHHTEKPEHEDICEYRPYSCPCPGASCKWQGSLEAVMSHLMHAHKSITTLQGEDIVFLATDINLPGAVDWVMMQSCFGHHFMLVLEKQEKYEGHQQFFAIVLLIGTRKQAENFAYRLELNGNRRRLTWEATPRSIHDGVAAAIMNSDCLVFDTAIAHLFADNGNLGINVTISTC
In words: co-IP; HEK293T co-transfected with FLAG-Siah construct and HA-PHD3; lysate on anti-FLAG M2 agarose beads, 4°C 1 hour, washed with NP40 lysis buffer; blot with anti-HA; densitometry as percentage of WT Siah2 SBD for Fig. 7c.

By UniProt entry, the sequences of proteins in these tests, tags left out.
UniProt Q9H6Z9: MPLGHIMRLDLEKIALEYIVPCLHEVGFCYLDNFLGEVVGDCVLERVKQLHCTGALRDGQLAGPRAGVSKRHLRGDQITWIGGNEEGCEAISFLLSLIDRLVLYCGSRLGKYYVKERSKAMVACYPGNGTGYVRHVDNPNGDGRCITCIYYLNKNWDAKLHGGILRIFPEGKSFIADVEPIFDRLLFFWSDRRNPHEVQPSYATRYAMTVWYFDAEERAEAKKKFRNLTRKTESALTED

For experiment [2], the target named is T2, full length FLAG-Siah2 (human) (UniProt O43255).
T2 sequence: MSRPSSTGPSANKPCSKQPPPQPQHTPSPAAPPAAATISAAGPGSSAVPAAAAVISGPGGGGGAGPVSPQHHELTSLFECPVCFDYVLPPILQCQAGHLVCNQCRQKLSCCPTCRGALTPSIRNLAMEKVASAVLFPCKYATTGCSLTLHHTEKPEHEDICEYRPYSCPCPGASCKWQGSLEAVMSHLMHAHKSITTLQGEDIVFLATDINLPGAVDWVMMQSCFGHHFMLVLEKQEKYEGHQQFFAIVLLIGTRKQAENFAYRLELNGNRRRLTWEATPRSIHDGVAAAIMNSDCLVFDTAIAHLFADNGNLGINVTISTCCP
The experiment is described as above.

Experiment [3] addresses T3, GST-Siah2 SBD (residues 130-322) (human) (UniProt O43255).
T3 sequence: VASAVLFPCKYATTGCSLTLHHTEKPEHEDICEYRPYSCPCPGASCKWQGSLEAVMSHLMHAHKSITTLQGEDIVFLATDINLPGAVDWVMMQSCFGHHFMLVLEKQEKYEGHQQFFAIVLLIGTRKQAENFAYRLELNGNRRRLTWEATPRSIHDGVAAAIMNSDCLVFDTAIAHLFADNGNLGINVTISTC
Nature of the experiment: pull-down; GST-Siah2 SBD on glutathione sepharose beads incubated with lysate of HEK293T cells transfected with HA-PHD3, 1 hour at 4°C, 50 mM Tris-HCl pH 8, 150 mM NaCl, 1 mM DTT, 5% glycerol, 0.1% Triton X-100; blot with anti-HA; only the target purified.

Experiment [4] addresses HA-PHD3 (prolyl hydroxylase 3) (human) (UniProt Q9H6Z9). In words: co-IP; HEK293T co-transfected with FLAG-Siah1 construct and HA-PHD3; HA immunoprecipitation of lysate; blot with anti-FLAG.

Results on two molecules are retold here after publication PMC4159269.

These are yes or no findings as the source states them, for the method shown. In cells and extracts the contact can be indirect. Some binding calls cover weakened binding; strength is not graded here. Where a sequence is shown, tags or fusion partners need not be part of it.

In the case of “HA-PHD3 (prolyl hydroxylase 3) (from UniProt Q9H6Z9 1-239)”, the binding result in experiment [1], in experiment [2] and in experiment [3] was “binds” throughout.

B1: full length FLAG-Siah1 (protein, UniProt Q8IUQ4 1-282)
chain: MSRQTATALPTGTSKCPPSQRVPALTGTTASNNDLASLFECPVCFDYVLPPILQCQSGHLVCSNCRPKLTCCPTCRGPLGSIRNLAMEKVANSVLFPCKYASSGCEITLPHTEKADHEELCEFRPYSCPCPGASCKWQGSLDAVMPHLMHQHKSITTLQGEDIVFLATDINLPGAVDWVMMQSCFGFHFMLVLEKQEKYDGHQQFFAIVQLIGTRKQAENFAYRLELNGHRRRLTWEATPRSIHEGIATAIMNSDCLVFDTSIAQLFAENGNLGINVTISMC
As for B1, in experiment [4], the binding entry is “no binding”.
